Experimental data: PubChem BioAssay AID1159544 (Gurdon Institute, 2015)

- Screen: 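E2 knock-downs that alter ubiquitin foci counts after 2 Gy irradiation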 (primary screen)
- System: human U2OS osteosarcoma cells
- Reagent: siRNA against human genes, about 60 nM siRNA
- Time to read-out: about 3 days from transfection to irradiation, then fixed 30 min to 24 h later
- Conditions: ionising radiation, 2 Gy; fixed 30 min, 2 h, 8 h or 24 h later; untreated plates as reference
- Measurement: 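FK2 staining of conjugated ubiquitin imaged confocally; automated foci detection within DAPI nuclear outlines gives an unnormalised well average of foci per cell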
- Reading the numbers: FK2 foci per cell, 30 min post-IR: higher = more ubiquitin foci early after irradiation; FK2 foci per cell, unirradiated: higher = more ubiquitin foci without irradiation; FK2 foci per cell, 2 h post-IR: higher = more ubiquitin foci 2 h after irradiation; FK2 foci per cell, 24 h post-IR: higher = more ubiquitin foci persisting a day later
- Active means: 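a knock-down counts as active if its averaged foci count at 30 min post-irradiation lies over 40% above or below the luciferase siRNA average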
The deposit covers 41 reagents; this is an unselected part of those with a known target gene and a result. In the full data, 13 (32%) got an active call. 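Values are raw well means without normalisation; calls set replicate averages against a luciferase siRNA control; from a single screening run.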 A number with no mark means an inactive call. The numbers tell different reagents against one gene apart. Repeated entries: replicate wells of the same siRNA.

no.	target	reagent no.	FK2 foci per cell, 30 min post-IR	FK2 foci per cell, unirradiated	FK2 foci per cell, 2 h post-IR	FK2 foci per cell, 24 h post-IR
1	UBE2K	1	5.44 (active)	3.44	4.65	3.42
2	UBE2K	1	5.23 (active)	3.37	4.75	3.59
3	UEVLD	1	11.9	4.97	7.61	4.76
4	UEVLD	1	11.7	5.18	7.76	4.97
5	CDC34	1	5.87 (active)	3.46	5.7	5.02
6	CDC34	1	6.69 (active)	3.24	5.44	4.52
7	UBE2O	1	3.9 (active)	2.24	2.4	3.56
8	UBE2O	1	3.35 (active)	2.27	2.6	3.01
9	UBE2W	1	8.04 (active)	2.68	5.49	4.05
10	UBE2W	1	8.17 (active)	3.3	4.85	3.71
11	UBE2S	1	12.3	5.04	7.92	4.57
12	UBE2S	1	12.5	4.78	8.81	5.69
13	UBE2G2	1	9.52	4.55	7.18	4.98
14	UBE2G2	1	9.7	4.46	7.04	4.58
15	UBE2T	1	11.7	5.87	7.92	5.64
16	UBE2T	1	11.7	5.93	8.12	5.99
17	UBE2V1	1	4.99 (active)	1.41	2.79	1.48
18	UBE2V1	1	5.25 (active)	1.27	3.26	1.59
19	UBE2F	1	14.8	4.82	11.2	5.88
20	UBE2F	1	14.4	4.99	10.5	5.87
21	UBE2D2	1	3.38 (active)	1.6	2.57	2.66
22	UBE2D2	1	3.08 (active)	1.87	2.45	3.01

Entries above whose target name begins with C or c:
target	reagent no.	FK2 foci per cell, 30 min post-IR	FK2 foci per cell, unirradiated	FK2 foci per cell, 2 h post-IR	FK2 foci per cell, 24 h post-IR
CDC34	1	5.87 (active)	3.46	5.7	5.02
CDC34	1	6.69 (active)	3.24	5.44	4.52

More results follow.
no.	target	reagent no.	FK2 foci per cell, 30 min post-IR	FK2 foci per cell, unirradiated	FK2 foci per cell, 2 h post-IR	FK2 foci per cell, 24 h post-IR
23	UBE2G1	1	6.75 (active)	3.15	5.15	4.45
24	UBE2G1	1	8.64 (active)	3.06	5.37	4.67
25	UBE2N	1	15.6	16.2	11.8	16.3
26	UBE2N	1	14.7	13.4	12	14.9
27	UBE2N	2	15.6	7.32	11	10
28	UBE2N	2	15.1	7.61	10.8	11.1
29	UBE2E2	1	18.1	7.91	13.6	6.18
30	UBE2E2	1	17.8	8.02	13.8	5.88
31	UBE2E3	1	16.7	7.22	11	5.9
32	UBE2E3	1	13.4	5.44	10.3	5.55
33	AKTIP	1	13.9	4.88	8.68	3.26
34	AKTIP	1	12.7	4.66	8.66	3.36
35	UBE2J2	1	19.4	6.51	13.5	8.67
36	UBE2J2	1	19	6.87	13.3	7.88
37	UBE2U	1	9.49	3.33	6.17	2.72
38	UBE2U	1	9.04	3	5.83	2.6
39	UBE2L3	1	13.5	4.85	10.2	8.41
40	UBE2L3	1	13.9	4.6	9.88	8.51
41	UBE2A	1	9.33	3.94	6.97	5.25
42	UBE2A	1	9.55	3.83	7.38	4.58
